# Measured values reported in US20160201132A1, “GENE EXPRESSION BIOMARKERS OF LAQUINIMOD RESPONSIVENESS” (Teva Pharmaceutical Industries Ltd., priority 2013, published 2016).
# The source gives many values for each of these; only a part stands here.
# Test system: PBMC of RRMS patients
# Assay: Gene expression microarray analysis (HG-U133A-2) of PBMC from RRMS patients treated with LAQ, ancillary study to ALLEGRO
# Assay type: in vivo, human
# From the text: The goal of this ancillary study was to characterize gene expression changes and corresponding biological mechanisms induced in PBMC of RRMS patients by LAQ treatment. According to ALLEGRO clinical trial inclusion criteria, 25 patients were randomly assigned to receive LAQ (n=13, age 38.8±2.3 years, female/male ratio: 8/5) or placebo (n=12, age 37.2±3.4 years, female/male ratio: 8/4).
# Peripheral blood samples were obtained from RRMS patients at baseline before start of LAQ treatment or placebo, after 0, 1, 6 and 24 month of treatment (visit 0, 1, 6 and 7 according to ALLEGRO clinical trial protocol correspondently) for gene microarray analysis.
# Briefly, 1) Peripheral blood mononuclear cells (PBMC) were obtained from RRMS patients that participated in ALLEGRO and were treated daily with 0.6 mg LAQ or placebo. PBMC were subjected for gene expression analysis (HU-133A-2-Affymatrix arrays) at baseline and at 1 and 6 months of LAQ treatment; 2) Data was analyzed by Partek Genomics Solution software. Most informative genes (MIGs) were defined as those that differentiated between groups with p<0.01. Gene functional annotation, enrichment and pathway analysis were performed by Ingenuity software. For each time point, genes that changed in placebo group were excluded from further analysis; and 3) Verification of LAQ related mechanism was performed by Western blot.
# PBMC were extracted from 15 ml peripheral blood, separated by Ficoll-Hypaque gradient. Total RNA was extracted using both Trizol (Invitrogen, USA) and Phase-Lock-Gel columns (Eppendorf, Germany) including a DNase digestion step. RNA integrity was assessed by RNA Experion automated electrophoresis system (Bio-Rad Laboratories, Hercules, Calif.).
# Probe synthesis using 3 μg total RNA, hybridization, detection, and scanning was performed according to the standard Affymetrix, Inc. USA protocols; cDNA was synthesized using the Two-Cycle cDNA Synthesis Kit (Affymetrix, Inc., USA), and in-vitro transcription performed with the GeneChip IVT Labeling Kit (Affymetrix, Inc., USA). The biotin-labeled IVT-RNA was hybridized to HG-U133A-2 arrays containing 18,400 gene transcripts, each corresponding to 14,500 well-annotated human genes, washed in a GeneChip Fluidics Station 450 (Hewlett Packard, USA, GeneArray-™ scanner G2500A) and scanned according to the manufacturer's protocol (Affymetrix, Inc., USA).
# Data analysis was performed on Partek Genomics Solution software (www.partek.com; Partek Incorporated, St. Louis, Mo.). Expression values were computed from raw CEL files by applying the Robust Multi-Chip Average (RMA) background correction algorithm. RMA correction included: 1) values background correction; 2) quintile normalization; 3) log 2 transformation; and 4) median polish summarization. The ANOVA, Repeated Measures and correlation analysis implicated in Partek software ware applied to evaluate LAQ effects. Most informative genes MIGs were defined as those that differentiated between experimental groups with p<0.01. All p-values were calculated for False Discovery Rate (FDR) multiple test correction at p=0.05.
# Additionally, significance of individual genes was tested by parametric T-test and non parametric Mann-Whitney test using Bootstrapping approach based on repeated permutations of the data with 5% FDR for multiple testing.
# Gene functional annotation, enrichment, and pathway analyses to identify the leading biological pathways that operated under LAQ treatment were performed by Ingenuity Pathways Analysis software (www.ingenuity.com).
# ANOVA analysis was used to compare PBMC gene expression after 1, 6 or 24 month of LAQ treatment with baseline gene expression.
# For each time point inventors performed analysis source of variation in dataset. (FIG. 1). Age, gender and batch effects were considered as confounders regarding LAQ or Placebo related changes. For each time point genes associated with Placebo effect were evaluated and excluded from further analysis. […]
compound,measurement,setting,value
"CCN(C(=O)c1c(O)c2c(Cl)cccc2n(C)c1=O)c1ccccc1 [LAQ, 5-chloro-N-ethyl-4-hydroxy-1-methyl-2-oxo-N-phenyl-1,2-dihydroquinoline-3-carboxamide]",Fold-Change (1.0 vs. 0.0),"208931_s_at ILF3, one month of treatment vs baseline",−1.148
same,Fold-Change (1.0 vs. 0.0),"208989_s_at KDM2A, one month of treatment vs baseline",−1.106
same,Fold-Change (1.0 vs. 0.0),"209423_s_at PHF20, one month of treatment vs baseline",−1.149
same,Fold-Change (1.0 vs. 0.0),"209586_s_at PRUNE, one month of treatment vs baseline",−1.237
same,Fold-Change (1.0 vs. 0.0),"209651_at TGFB1I1, one month of treatment vs baseline",−1.766
same,Fold-Change (1.0 vs. 0.0),"209767_s_at GP1BB /// SEPT5, one month of treatment vs baseline",−1.471
same,Fold-Change (1.0 vs. 0.0),"209826_at EGFL8 /// PPT2, one month of treatment vs baseline",−1.1054
same,Fold-Change (1.0 vs. 0.0),"209840_s_at LRRN3, one month of treatment vs baseline",1.861
same,Fold-Change (1.0 vs. 0.0),"210074_at CTSL2, one month of treatment vs baseline",−1.243
same,Fold-Change (1.0 vs. 0.0),"210183_x_at PNN, one month of treatment vs baseline",−1.103
same,Fold-Change (1.0 vs. 0.0),"210360_s_at MTSS1, one month of treatment vs baseline",−1.166
same,Fold-Change (1.0 vs. 0.0),"210988_s_at PRUNE, one month of treatment vs baseline",−1.301
same,Fold-Change (1.0 vs. 0.0),"211026_s_at MGLL, one month of treatment vs baseline",−1.603
same,Fold-Change (1.0 vs. 0.0),"211059_s_at GOLGA2, one month of treatment vs baseline",−1.144
same,Fold-Change (1.0 vs. 0.0),"211154_at THPO, one month of treatment vs baseline",−1.117
same,Fold-Change (1.0 vs. 0.0),"211334_at MRE11A, one month of treatment vs baseline",−1.122
same,Fold-Change (1.0 vs. 0.0),"211449_at MSH6, one month of treatment vs baseline",−1.114
same,Fold-Change (1.0 vs. 0.0),"211522_s_at GNRHR, one month of treatment vs baseline",−1.121
same,Fold-Change (1.0 vs. 0.0),"211567_at (no gene symbol), one month of treatment vs baseline",−1.126
same,Fold-Change (1.0 vs. 0.0),"211728_s_at HYAL3, one month of treatment vs baseline",−1.168
same,Fold-Change (1.0 vs. 0.0),"211858_x_at GNAS, one month of treatment vs baseline",−1.136
same,Fold-Change (1.0 vs. 0.0),"211982_x_at XPO6, one month of treatment vs baseline",−1.073
same,Fold-Change (1.0 vs. 0.0),"212151_at PBX1, one month of treatment vs baseline",−1.5597
same,Fold-Change (1.0 vs. 0.0),"212692_s_at LRBA, one month of treatment vs baseline",−1.1862
same,Fold-Change (1.0 vs. 0.0),"212742_at RNF115, one month of treatment vs baseline",−1.091
same,Fold-Change (1.0 vs. 0.0),"213046_at PABPN1, one month of treatment vs baseline",−1.1431
same,Fold-Change (1.0 vs. 0.0),"213236_at SASH1, one month of treatment vs baseline",1.905
same,Fold-Change (1.0 vs. 0.0),"213306_at MPDZ, one month of treatment vs baseline",−1.102
same,Fold-Change (1.0 vs. 0.0),"213431_x_at SFI1, one month of treatment vs baseline",−1.069
same,Fold-Change (1.0 vs. 0.0),"213598_at (no gene symbol), one month of treatment vs baseline",−1.221
same,Fold-Change (1.0 vs. 0.0),"213746_s_at FLNA, one month of treatment vs baseline",−1.164
same,Fold-Change (1.0 vs. 0.0),"213765_at MFAP5, one month of treatment vs baseline",−1.092
same,Fold-Change (1.0 vs. 0.0),"213828_x_at H3F3A /// H3F3B /// LOC440926, one month of treatment vs baseline",−1.097
same,Fold-Change (1.0 vs. 0.0),"213864_s_at NAP1L1, one month of treatment vs baseline",−1.139
same,Fold-Change (1.0 vs. 0.0),"213908_at WHAMML1 /// WHAMML2, one month of treatment vs baseline",−1.37
same,Fold-Change (1.0 vs. 0.0),"214308_s_at HGD, one month of treatment vs baseline",−1.648
same,Fold-Change (1.0 vs. 0.0),"214369_s_at RASGRP2, one month of treatment vs baseline",−1.106
same,Fold-Change (1.0 vs. 0.0),"214514_at MCM3AP, one month of treatment vs baseline",−1.132
same,Fold-Change (1.0 vs. 0.0),"214577_at MAP1B, one month of treatment vs baseline",−1.148
same,Fold-Change (1.0 vs. 0.0),"214917_at PRKAA1, one month of treatment vs baseline",−1.173
same,Fold-Change (1.0 vs. 0.0),"214938_x_at HMGB1, one month of treatment vs baseline",−1.084
same,Fold-Change (1.0 vs. 0.0),"214958_s_at TMC6, one month of treatment vs baseline",−1.125
same,Fold-Change (1.0 vs. 0.0),"215101_s_at CXCL5, one month of treatment vs baseline",−1.667
same,Fold-Change (1.0 vs. 0.0),"215122_at TBX6, one month of treatment vs baseline",−1.145
same,Fold-Change (1.0 vs. 0.0),"215306_at (gene symbol not given), one month of treatment",−1.226
same,Fold-Change (1.0 vs. 0.0),"215653_at (no gene symbol), one month of treatment vs baseline",−1.115
same,Fold-Change (1.0 vs. 0.0),"215813_s_at PTGS1, one month of treatment vs baseline",−1.556
same,Fold-Change (1.0 vs. 0.0),"215993_at (gene symbol not given), one month of treatment",−1.075
same,Fold-Change (1.0 vs. 0.0),"216231_s_at B2M, one month of treatment vs baseline",−1.054
same,Fold-Change (1.0 vs. 0.0),"216261_at ITGB3, one month of treatment vs baseline",−1.378
same,Fold-Change (1.0 vs. 0.0),"216463_at (no gene symbol), one month of treatment vs baseline",−1.145
same,Fold-Change (1.0 vs. 0.0),"216513_at DCT, one month of treatment vs baseline",−1.165
same,Fold-Change (1.0 vs. 0.0),"216623_x_at TOX3, one month of treatment vs baseline",−1.098
same,Fold-Change (1.0 vs. 0.0),"216625_at (no gene symbol), one month of treatment vs baseline",−1.101
same,Fold-Change (1.0 vs. 0.0),"216867_s_at PDGFA, one month of treatment vs baseline",−1.3116
same,Fold-Change (1.0 vs. 0.0),"216881_x_at PRB4, one month of treatment vs baseline",−1.117
same,Fold-Change (1.0 vs. 0.0),"216896_at COL4A3, one month of treatment vs baseline",−1.141
same,Fold-Change (1.0 vs. 0.0),"217083_at IGHG1, one month of treatment vs baseline",−1.164
same,Fold-Change (1.0 vs. 0.0),"217335_at FLJ11292, one month of treatment vs baseline",−1.159
same,Fold-Change (1.0 vs. 0.0),"217673_x_at GNAS, one month of treatment vs baseline",−1.132
same,Fold-Change (1.0 vs. 0.0),"217705_at PRKD1, one month of treatment vs baseline",−1.082
same,Fold-Change (1.0 vs. 0.0),"217736_s_at EIF2AK1, one month of treatment vs baseline",−1.235
same,Fold-Change (1.0 vs. 0.0),"217912_at DUS1L, one month of treatment vs baseline",−1.083
same,Fold-Change (1.0 vs. 0.0),"217928_s_at SAPS3, one month of treatment vs baseline",−1.102
same,Fold-Change (1.0 vs. 0.0),"217963_s_at NGFRAP1, one month of treatment vs baseline",−1.41
same,Fold-Change (1.0 vs. 0.0),"218117_at RBX1, one month of treatment vs baseline",−1.1728
same,Fold-Change (1.0 vs. 0.0),"218243_at RUFY1, one month of treatment vs baseline",−1.437
same,Fold-Change (1.0 vs. 0.0),"218704_at RNF43, one month of treatment vs baseline",−1.149
same,Fold-Change (1.0 vs. 0.0),"219202_at RHBDF2, one month of treatment vs baseline",−1.122
same,Fold-Change (1.0 vs. 0.0),"219503_s_at TMEM40, one month of treatment vs baseline",−1.457
same,Fold-Change (1.0 vs. 0.0),"219705_at QSER1, one month of treatment vs baseline",−1.178
same,Fold-Change (1.0 vs. 0.0),"219779_at ZFHX4, one month of treatment vs baseline",−1.167
same,Fold-Change (1.0 vs. 0.0),"219857_at C10orf81, one month of treatment vs baseline",−1.185
same,Fold-Change (1.0 vs. 0.0),"219983_at HRASLS, one month of treatment vs baseline",−1.53
same,Fold-Change (1.0 vs. 0.0),"220094_s_at CCDC90A, one month of treatment vs baseline",−1.32
same,Fold-Change (1.0 vs. 0.0),"220336_s_at GP6, one month of treatment vs baseline",−1.613
same,Fold-Change (1.0 vs. 0.0),"220518_at ABI3BP, one month of treatment vs baseline",−1.134
same,Fold-Change (1.0 vs. 0.0),"220847_x_at ZNF221, one month of treatment vs baseline",1.155
same,Fold-Change (1.0 vs. 0.0),"221160_s_at CABP5, one month of treatment vs baseline",−1.562
same,Fold-Change (1.0 vs. 0.0),"221555_x_at CDC14B, one month of treatment vs baseline",−1.353
same,Fold-Change (1.0 vs. 0.0),"221746_at UBL4A, one month of treatment vs baseline",−1.2092
same,Fold-Change (1.0 vs. 0.0),"221748_s_at TNS1, one month of treatment vs baseline",−1.4944
